Measurements from patent US10611729B2, “Farnesoid X receptor antagonists” (City of Hope, priority 2014, dated 2020).
Some entries share one result that the patent states for a list of compounds.

What follows are compounds tested against T1, FXR (Homo sapiens, UniProt Q96RI1) (assay: FXR TR-FRET binding assay (DY246 fluorescent probe)). Details: text says FXR antagonistic activity / potency in hFXR; figures fit TR-FRET IC50.
T1 sequence (Q96RI1 262-486 limits assumed): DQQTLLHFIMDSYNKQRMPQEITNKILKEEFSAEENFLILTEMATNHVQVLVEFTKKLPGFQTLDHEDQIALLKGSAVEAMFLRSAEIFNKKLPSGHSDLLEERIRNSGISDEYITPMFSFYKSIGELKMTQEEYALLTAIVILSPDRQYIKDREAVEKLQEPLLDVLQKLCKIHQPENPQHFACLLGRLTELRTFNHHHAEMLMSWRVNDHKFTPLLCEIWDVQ
Parameters: the Gal4 DBD was fused to the LBD of FXR in this assay
Procedure: The FXR TR-FRET binding assay was performed as previously described^23 with modifications. […] The plate was spun down after a brief shake and incubated at room temperature for 20 min. The TR-FRET emission signals at 520 nm and 490 nm for each well was then collected using a PHERAstar plate reader (BMG LABTECH, Cary, N.C.) with an excitation wavelength of 337 nm, 100-μs delay time, and 200-μs integration time. The 520 nm/490 nm ratio from each well was then calculated. […] The % inhibition of tested chemicals at given concentration was calculated based on negative and positive controls using equation 1.

Fold improvement of activity compared to Z26476908, 3- to 4 fold:
Cc1ccc(-c2nn(-c3ccc(F)cc3)cc2C(=O)Nc2ccc(C)c(S(=O)(=O)N3CCOCC3)c2)cc1 [Compound 4a, 1-(4-fluorophenyl)-N-(4-methyl-3-(morpholinosulfonyl)phenyl)-3-p-tolyl-1H-pyrarazole-4-carboxamide]
Cc1ccc(-c2nn(-c3cccc(Cl)c3)cc2C(=O)Nc2ccc(C)c(S(=O)(=O)N3CCOCC3)c2)cc1 [Compound 4b, 1-(3-Chlorophenyl)-N-(4-methyl-3-(morpholinosulfonyl)phenyl)-3-(p-tolyl)-1H-pyrazole-4-carboxamide]
Cc1ccc(-c2nn(-c3ccc(Cl)cc3Cl)cc2C(=O)Nc2ccc(C)c(S(=O)(=O)N3CCOCC3)c2)cc1 [Compound 4c, 1-(2,4-Dichlorophenyl)-N-(4-methyl-3-(morpholinosulfonyl)phenyl)-3-(p-tolyl)-1H-pyrazole-4-carboxamide]
Cc1ccc(-c2nn(-c3nc4ccccc4s3)cc2C(=O)Nc2ccc(C)c(S(=O)(=O)N3CCOCC3)c2)cc1 [Compound 4e, 1-(Benzo[d]thiazol-2-yl)-N-(4-methyl-3-(morpholinosulfonyl)phenyl)-3-(p-tolyl)-1H-pyrazole-4-carboxamide]
